PubChem BioAssay AID651814 (National Center for Advancing Translational Sciences (NCATS), 2012)
Out of some 2,100 compounds screened, about 590 (28%) were called active. The shares of active, inactive and inconclusive entries below differ from those in the screen. The call rests on the fitted dose curve; in most records, active means well fitted inhibition curve with a large enough effect; inconclusive means small, poorly fitted or top-dose-only effect; inactive means flat fitted curve, though single readings scatter. Where the call is inconclusive, the potency comes from a doubtful curve fit.
Further: nearly all actives have a fitted effect of over 70% in size.
Potency means the concentration at half of the fitted maximal effect.
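Wherever max response is given: % of control where 0% means no effect; active compounds raise eYFP fluorescence by blocking Vif-driven A3F loss.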

The chains behind the UniProt entries cited, without tags or fusion partners. Where a name states a change or a piece, a line headed by the entry shows the natural chain unless it says otherwise.
UniProt Q8IUX4: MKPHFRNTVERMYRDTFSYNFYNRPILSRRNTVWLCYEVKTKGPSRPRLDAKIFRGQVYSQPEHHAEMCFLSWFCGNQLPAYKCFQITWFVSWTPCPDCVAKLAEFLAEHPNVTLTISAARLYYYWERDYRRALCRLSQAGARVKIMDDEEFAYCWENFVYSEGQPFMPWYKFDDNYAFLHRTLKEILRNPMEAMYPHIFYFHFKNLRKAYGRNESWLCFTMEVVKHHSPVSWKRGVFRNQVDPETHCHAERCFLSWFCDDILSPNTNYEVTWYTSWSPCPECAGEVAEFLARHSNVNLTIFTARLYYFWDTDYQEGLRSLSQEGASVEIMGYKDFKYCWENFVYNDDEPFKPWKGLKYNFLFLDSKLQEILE

The molecules below were run against DNA dC->dU-editing enzyme APOBEC-3F (Homo sapiens) (UniProt Q8IUX4) (assay: qHTS for inhibitors of Vif-A3F interactions: Cherry picks). Details: HeLa A3F-eYFP + Vif (tagged APOBEC3F with the HIV-1 protein that degrades it), eYFP fluorescence, 24 h.
Method in brief: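 Read-out: yellow fluorescence (ex 488 nm, em 500-530 nm) by laser-scanning cytometer after 24 h compound exposure, several concentrations, at 37 deg C. Cells: HeLa line stably co-expressing Vif and C-terminally eYFP-tagged A3F; MG132 served as positive control.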
For `COC(=O)c1c(N2C(=O)[C@H]3[C@@H](C2=O)[C@]2(C(=O)Nc4c(C)cccc42)N2CCC[C@@H]32)sc(C)c1C`, the Potency was inconclusive: 11.2 µM [inhibitor, partial curve].
In the case of `Cc1c(C(=O)Nc2cnccn2)oc2ccccc12`, the max response is reported as inactive: -18.9%.
`O=C(OCc1ccccc1)c1ccc(NCc2cc(O)ccc2O)cc1` was tested, and the Potency was inconclusive: 4.98 µM [inhibitor, full curve].
In the case of `C=CCNc1nc2cc(-c3cccc(Cl)c3)sc2c(=O)n1C`, the Potency is reported as inconclusive: 14 µM [inhibitor, single point].
For `CCN(Cc1ccccc1)c1ccc(/C=C/c2nccc3ccccc23)cc1`, the Potency was active: 20.6 µM.
In the case of `N#C/C(=C/c1ccc(N2CCOCC2)o1)c1ccc(Cl)cc1`, the Potency is reported as active: 4.61 µM.
`COc1ccc(COc2cc(-c3cccc(OC)c3)nc3ccc(NC(=O)C(C)C)cc23)cc1` was tested, and the Potency was inconclusive: 5.59 µM [inhibitor, partial curve].
`COc1ccc(S(=O)(=O)NN(C)c2nc(C(F)(F)F)nc3ccccc23)cc1` was tested, and the Potency was inconclusive: 7.04 µM [inhibitor, partial curve].
In the case of `O=C1/C(=C/c2ccccc2)CN(C(=O)CCN2CCOCC2)C/C1=C\c1ccccc1`, the Potency is reported as inconclusive: 17.7 µM [inhibitor, single point].
`CCOC(=O)CCc1ccc(NC(=O)/C=C/c2ccc([N+](=O)[O-])o2)cc1` was tested, and the Potency was active: 8.2 µM.
For `c1ccc(-c2nccc(-c3ccc4c(c3)OCO4)n2)cc1`, the Potency was inconclusive: 5.59 µM [inhibitor, partial curve].
In the case of `Cc1ccc2c(CC(=O)NCc3ccco3)coc2c1C`, the Potency is reported as inconclusive: 7.9 µM [inhibitor, partial curve].
In the case of `CCC1=Nc2cc(C(=O)NCc3cccnc3)ccc2Sc2ccc(C)cc21`, the Potency is reported as inconclusive: 2.8 µM [inhibitor, full curve].
In the case of `CCOc1ccc(Br)cc1C1C(C(=O)OC)=C(N)Oc2cc(N(C)C)ccc21` (stereo not drawn), the max response is reported as inactive: -21.7%.
For `CCN(CC(=O)NCc1ccc(F)cc1)C(=O)/C=C/c1ccc(OC)c(S(=O)(=O)NC(C)C)c1`, the Potency was inconclusive: 1.98 µM [inhibitor, full curve].
With `Cc1cc2nc(SCCOC(=O)Nc3cccc(Cl)c3)nc(C)c2cc1C` the max response was inactive: 3.73%.
In the case of `N#C/C(=C\c1ccc(-c2ccc(C(=O)O)cc2)o1)c1nc2ccccc2[nH]1`, the max response is reported as inactive: 0.542%.
With `Cc1cc(C)c(S(=O)(=O)Oc2ccccc2[N+](=O)[O-])c(C)c1` the Potency was inconclusive: 3.53 µM [inhibitor, full curve].
In the case of `Cc1ccc(SC2=C(Sc3ccc(C)cc3)C(=O)c3ccccc3C2=O)cc1`, the Potency is reported as active: 20.6 µM.
For `N#Cc1ccc(-c2cccnc2)nc1SCC(=O)c1ccccc1`, the Potency was inconclusive: 8.2 µM [inhibitor, partial curve].
With `CCOc1ccc(NC(=O)/C(C#N)=C/c2ccc(N3CCCC3)c(C)c2)cc1` the Potency was active: 1.03 µM.
`CC(C)c1ccc(C(=O)NCCCNC(=O)c2cnccn2)cc1` was tested, and the max response was inactive: 1.42%.
For `O=C(CN1C(=O)CSc2ncccc21)Nc1cccc(Cl)c1`, the max response was inactive: -15.2%.
